Measurements: the supplement of paper PMC6078165
± gives the standard deviation of the averaged measurements. Values are relative to the signal before dosing, not to a vehicle control; the signal also falls without drug.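 Fibroblast labels denote human fibroblasts, mainly primary ones from uterus (C12385, HUF), lung (H6013), bone (Hs27A), adrenal (HADF) and skin (WS1), plus mammary HMF and breast cancer-associated Hs343T. Cancer cells are basal-like or mesenchymal-like triple-negative breast cancer lines. A hit is a response shift exceeding 3x replicate standard deviation. The tissue of the other fibroblasts is not given here.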

Tested on: MDAMB231
Test: relative JC-1 red fluorescence (viability) vs pre-drug, coculture with fibroblast (fraction); higher = more viable cancer cells
Procedure: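 JC-1 labelled TNBC cells cocultured 1:1 (1,500 cells each) with CellTrace Violet stained primary or stromal fibroblasts in 384-well plates in FluoroBrite medium, treated with one of 42 anticancer drugs at 0.1, 1, 10 or 100 uM. JC-1 red fluorescence (mitochondrial integrity in cancer cells only) was read by plate reader every 8 h for 72 h. Values are normalised to each well's pre-drug value. The stock of one drug was tenfold lower, so its dose labels may be too high.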

CCC1=C[C@@H]2CN(C1)Cc1c([nH]c3ccccc13)[C@@](C(=O)OC)(c1cc3c(cc1OC)N(C)[C@H]1[C@@](O)(C(=O)OC)[C@H](OC(C)=O)[C@]4(CC)C=CCN5CC[C@]31[C@@H]54)C2 [Vinorelbine]
relative JC-1 red fluorescence
Settings	8 h	16 h	24 h	32 h	40 h	48 h	56 h	64 h	72 h
10 µM, coculture fibroblast: C12385	0.76 ± 0.018	0.805 ± 0.05	0.635 ± 0.016	0.747 ± 0.041	0.687 ± 0.041	0.66 ± 0.05	0.609 ± 0.059	0.571 ± 0.068	0.539 ± 0.066
10 µM, coculture fibroblast: H6013	0.9032 ± 0.0041	0.901 ± 0.006	0.8706 ± 0.003	0.87 ± 0.012	0.818 ± 0.024	0.762 ± 0.024	0.761 ± 0.0077	0.7333 ± 0.0011	0.6866 ± 0.0053
10 µM, coculture fibroblast: H6019	0.849 ± 0.052	0.767 ± 0.08	0.724 ± 0.083	0.782 ± 0.11	0.758 ± 0.16	0.706 ± 0.15	0.727 ± 0.26	0.68 ± 0.23	0.653 ± 0.24
10 µM, coculture fibroblast: H6076	0.947 ± 0.045	0.929 ± 0.074	0.885 ± 0.07	0.863 ± 0.046	0.797 ± 0.051	0.766 ± 0.067	0.71 ± 0.058	0.67 ± 0.05	0.639 ± 0.069
10 µM, coculture fibroblast: H6231	0.9892 ± 0.0072	0.972 ± 0.019	0.917 ± 0.021	0.8632 ± 0.0081	0.8193 ± 0.0018	0.793 ± 0.011	0.739 ± 0.02	0.704 ± 0.016	0.655 ± 0.02
10 µM, coculture fibroblast: HADF	0.921 ± 0.02	0.917 ± 0.047	0.908 ± 0.039	0.888 ± 0.06	0.851 ± 0.059	0.783 ± 0.046	0.784 ± 0.051	0.766 ± 0.048	0.692 ± 0.046
10 µM, coculture fibroblast: HCFa	0.9188 ± 0.007	0.9103 ± 0.0067	0.8903 ± 0.0077	0.876 ± 0.01	0.828 ± 0.013	0.7648 ± 0.0037	0.754 ± 0.016	0.706 ± 0.02	0.663 ± 0.017
10 µM, coculture fibroblast: HCPF	0.9632 ± 0.0085	0.916 ± 0.014	0.873 ± 0.034	0.863 ± 0.045	0.825 ± 0.051	0.791 ± 0.052	0.75 ± 0.058	0.713 ± 0.074	0.684 ± 0.082
10 µM, coculture fibroblast: HHSteC	0.927 ± 0.014	0.932 ± 0.022	0.914 ± 0.024	0.883 ± 0.032	0.837 ± 0.017	0.788 ± 0.032	0.757 ± 0.041	0.74 ± 0.036	0.698 ± 0.043
10 µM, coculture fibroblast: HMF	0.92 ± 0.11	0.926 ± 0.071	0.911 ± 0.04	0.84 ± 0.094	0.824 ± 0.064	0.851 ± 0.018	0.854 ± 0.11	0.821 ± 0.095	0.766 ± 0.083
10 µM, coculture fibroblast: HPFa	0.88 ± 0.093	0.859 ± 0.13	0.843 ± 0.085	0.871 ± 0.034	0.772 ± 0.044	0.746 ± 0.0041	0.814 ± 0.15	0.697 ± 0.06	0.785 ± 0.23
10 µM, coculture fibroblast: HUF	0.879 ± 0.032	0.8 ± 0.044	0.809 ± 0.071	0.723 ± 0.079	0.674 ± 0.084	0.645 ± 0.068	0.6 ± 0.071	0.59 ± 0.082	0.568 ± 0.084
10 µM, coculture fibroblast: Hs5	0.806 ± 0.15	0.823 ± 0.088	0.92 ± 0.096	0.89 ± 0.099	0.853 ± 0.11	0.807 ± 0.11	0.754 ± 0.1	0.722 ± 0.098	0.677 ± 0.084
10 µM, coculture fibroblast: Hs27A	0.926 ± 0.037	0.89 ± 0.037	0.865 ± 0.032	0.851 ± 0.037	0.808 ± 0.022	0.712 ± 0.01	0.745 ± 0.0089	0.7304 ± 0.0016	0.6913 ± 0.0011
10 µM, coculture fibroblast: Hs343T	0.73 ± 0.047	0.83805 ± 0.00013	0.903 ± 0.11	0.884 ± 0.1	0.906 ± 0.013	0.805 ± 0.11	0.791 ± 0.041	0.822 ± 0.059	0.804 ± 0.079
10 µM, coculture fibroblast: WS1	0.7908 ± 0.0047	0.8004 ± 0.0019	0.686 ± 0.015	0.715 ± 0.022	0.678 ± 0.0074	0.637 ± 0.023	0.59 ± 0.017	0.568 ± 0.041	0.543 ± 0.034
100 µM, coculture fibroblast: C12385	0.692 ± 0.03	0.596 ± 0.074	0.398 ± 0.06	0.265 ± 0.068	0.202 ± 0.084	0.166 ± 0.066	0.135 ± 0.066	0.127 ± 0.07	0.1 ± 0.065
100 µM, coculture fibroblast: H6013	0.9509 ± 0.0082	0.754 ± 0.067	0.421 ± 0.068	0.286 ± 0.038	0.228 ± 0.048	0.207 ± 0.052	0.171 ± 0.043	0.146 ± 0.039	0.109 ± 0.037
100 µM, coculture fibroblast: H6019	0.868 ± 0.015	0.639 ± 0.11	0.424 ± 0.027	0.281 ± 0.015	0.221 ± 0.0037	0.197 ± 0.0047	0.1638 ± 0.00018	0.15044 ± 0.00015	0.1226 ± 0.0011
100 µM, coculture fibroblast: H6076	0.791 ± 0.071	0.828 ± 0.14	0.484 ± 0.19	0.39 ± 0.15	0.329 ± 0.15	0.284 ± 0.14	0.251 ± 0.14	0.23 ± 0.13	0.199 ± 0.12
100 µM, coculture fibroblast: H6231	0.887 ± 0.034	0.934 ± 0.022	0.608 ± 0.071	0.411 ± 0.093	0.307 ± 0.076	0.266 ± 0.067	0.212 ± 0.06	0.193 ± 0.065	0.164 ± 0.062
100 µM, coculture fibroblast: HADF	0.943 ± 0.011	0.814 ± 0.017	0.509 ± 0.05	0.313 ± 0.062	0.234 ± 0.052	0.21 ± 0.051	0.167 ± 0.045	0.145 ± 0.044	0.107 ± 0.041
100 µM, coculture fibroblast: HCFa	0.921 ± 0.066	0.899 ± 0.016	0.674 ± 0.027	0.411 ± 0.049	0.283 ± 0.061	0.243 ± 0.057	0.2 ± 0.05	0.179 ± 0.048	0.141 ± 0.044
100 µM, coculture fibroblast: HCPF	0.852 ± 0.021	0.871 ± 0.026	0.5106 ± 0.0034	0.40542 ± 0.00032	0.298 ± 0.042	0.255 ± 0.041	0.218 ± 0.03	0.183 ± 0.023	0.157 ± 0.021
100 µM, coculture fibroblast: HHSteC	0.848 ± 0.18	0.8444 ± 0.0023	0.498 ± 0.013	0.308 ± 0.0053	0.24 ± 0.0069	0.22 ± 0.0064	0.175 ± 0.0035	0.154 ± 0.0036	0.121 ± 0.0019
100 µM, coculture fibroblast: HMF	0.8845 ± 0.0023	0.769 ± 0.034	0.7 ± 0.07	0.489 ± 0.062	0.354 ± 0.046	0.303 ± 0.044	0.239 ± 0.036	0.22 ± 0.04	0.188 ± 0.042
100 µM, coculture fibroblast: HPFa	0.986 ± 0.01	0.836 ± 0.089	0.523 ± 0.086	0.362 ± 0.057	0.31 ± 0.05	0.277 ± 0.048	0.227 ± 0.043	0.201 ± 0.043	0.166 ± 0.041
100 µM, coculture fibroblast: HUF	0.853 ± 0.014	0.717 ± 0.03	0.508 ± 0.064	0.312 ± 0.042	0.221 ± 0.037	0.198 ± 0.034	0.153 ± 0.031	0.139 ± 0.023	0.115 ± 0.023
100 µM, coculture fibroblast: Hs5	0.849 ± 0.14	0.835 ± 0.054	0.558 ± 0.057	0.413 ± 0.049	0.319 ± 0.029	0.251 ± 0.017	0.214 ± 0.011	0.173 ± 0.015	0.144 ± 0.01
100 µM, coculture fibroblast: Hs27A	0.9276 ± 0.0068	0.823 ± 0.034	0.589 ± 0.021	0.402 ± 0.018	0.31 ± 0.023	0.287 ± 0.03	0.247 ± 0.03	0.221 ± 0.028	0.183 ± 0.029
100 µM, coculture fibroblast: Hs343T	0.829 ± 0.064	0.945 ± 0.077	0.635 ± 0.022	0.4646 ± 0.0042	0.331 ± 0.015	0.269 ± 0.012	0.217 ± 0.013	0.191 ± 0.012	0.162 ± 0.015
100 µM, coculture fibroblast: WS1	0.772 ± 0.089	0.497 ± 0.12	0.26 ± 0.005	0.142 ± 0.0015	0.091 ± 0.0094	0.0566 ± 0.0062	0.0282 ± 0.00064	0.0188 ± 0.00033	0.00089 ± 0.0001
